# Laboratory results from the supplement of paper PMC12889115.
# The list shows a part of the results. These are raw signals, not scaled to a control.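 In the initial screen, polymyxin B was used at a concentration that permeabilizes Salmonella's outer membrane but not its inner membrane. Maximum growth was set by DMSO wells with or without polymyxin B. Since plates varied, data were ranked per plate, and compounds giving the lowest OD600 advanced as hits.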
# System: Salmonella enterica serovar Typhimurium SL1344
# Experiment: bacterial growth OD600 after 18 h with compound and polymyxin B; higher = more bacterial growth (less inhibition)
# Conditions: 50 µM, Mueller-Hinton broth
SMILES,bacterial growth OD600 (polymyxin B 1 µg/mL),bacterial growth OD600 (polymyxin B 0.75 µg/mL)
CCCn1c(C)c(CC(=O)NC2CCC2)c2c1CC(C)(C)CC2=O,0.846,
COc1ccc(NC2CCCN(Cc3ccccc3OC(F)F)C2)cc1OC (stereo not given),,0.759
CC(=O)N1CCCN(C(=O)CC(c2ccccc2)c2ccc(Cl)cc2)CC1 (stereo not given),0.805,
CN(Cc1ccccc1)C1(CNC(=O)CCC(F)(F)F)Cc2ccccc2C1,1.01,
CC(C)C(=O)N(C)C(Cc1ccccc1)C1CCN(C(=O)/C=C/c2cc(F)ccc2F)CC1 (stereo not given),,-0.006
CCc1ccc(CN(C)C(=O)c2cc(OC)ccc2OC2CCN(C(=O)C3CC3)CC2)cc1,0.02,
COCCCN1C(=O)CC(CC(=O)N2CCCCC2c2cccnc2)(c2ccccc2OC)C1=O (stereo not given),,0.832
O=C(NCC1CC(Cc2ccc(F)cc2)=NO1)/C(F)=C/c1ccccc1 (stereo not given),,0.669
CCOC(=O)C1(Cc2ccccc2C)CCCN(C(=O)c2cc(C3CC3)n[nH]2)C1 (stereo not given),0.015,
Cn1ccnc1C1CCCCN1C(=O)CC1(c2cccc(F)c2)CC(=O)N(Cc2cccnc2)C1=O (stereo not given),,0.977
CCCc1cc(C(=O)N2CCC3(CC2)c2ccccc2[C@@H](NC(=O)c2ccncc2)[C@@H]3OC)no1,,0.814
Cc1ccc(C)c(-c2cn3c(C(=O)NCc4ccncc4)csc3n2)c1,,0.577
OCC1(Cc2ccc(F)cc2)CCCN(Cc2ccc(-n3cccn3)cc2)C1 (stereo not given),,0.734
CSCC(=O)N1CCCC(Nc2ccc(C(C)C)cc2)C1 (stereo not given),1.01,
O=C(Nc1cccc(-c2cccc(Cl)c2)c1)C1CCN(C(=O)Cn2cccn2)CC1,0.641,
Cc1ccn(CC(=O)N(CC2CCN(Cc3ccccc3F)CC2)CC2CCCO2)n1 (stereo not given),,0.977
Cc1nonc1C1CCCN1c1ccc(-c2nc(C(C)C)no2)cn1 (stereo not given),0.869,
COc1ccc(/C=C/CN2CCCC(CO)(Cc3ccccc3F)C2)cc1 (stereo not given),,0.859
Cc1nc2ccccc2n1Cc1cc(C(=O)NCC(C)(C)CN(C)C)no1,,0.835
COc1cc(CC2(CCC(=O)N3CCC(c4ccc(F)cc4)C3)CCC(=O)N2)ccc1F (stereo not given),,0.79

# Individual results from the results shown.
# bacterial growth OD600 (polymyxin B 0.75 µg/mL) with `OCC1(Cc2ccc(F)cc2)CCCN(Cc2ccc(-n3cccn3)cc2)C1` (stereo not given) is entered as 0.734
# bacterial growth OD600 (polymyxin B 0.75 µg/mL) with `Cc1nc2ccccc2n1Cc1cc(C(=O)NCC(C)(C)CN(C)C)no1` is entered as 0.835
